{"source": "PubChem BioAssay AID1259425 (University of Nebraska Medical Center, 2018)", "test": "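Seek colon cancer weak points whose silencing resembles KSR1 loss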 (primary screen)", "cell system": "HCT116 human colon cancer cells", "reagent": "siRNA pool against human genes, 50 nM siRNA", "measured": "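After 50 nM siRNA pool, branched-DNA assay measures six marker transcripts per well, minus blank, normalised to the geometric mean of two housekeeping transcripts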", "reading the numbers": "BNIP3L mRNA: higher = more BNIP3L transcript after knockdown; NDRG1 mRNA: higher = more NDRG1 transcript after knockdown", "note": "Here is one part, drawn at random, of about 14,000 reagents tested. Not all columns of the deposit are shown. Not stated in the record: the time to read-out."}
{"Gene": "MACROH2A1 (macroH2A.1 histone)", "BNIP3L mRNA, set 1": 0.0723, "NDRG1 mRNA, set 1": 0.154}
{"Gene": "TEX264 (testis expressed 264, ER-phagy receptor)", "BNIP3L mRNA, set 1": 0.1, "NDRG1 mRNA, set 1": 0.181}
{"Gene": "HRH4 (histamine receptor H4)", "BNIP3L mRNA, set 1": 0.186, "NDRG1 mRNA, set 1": 0.265}
{"Gene": "MRPL12 (mitochondrial ribosomal protein L12)", "BNIP3L mRNA, set 1": 0.251, "NDRG1 mRNA, set 1": 0.625}
{"Gene": "WASL (WASP like actin nucleation promoting factor)", "BNIP3L mRNA, set 1": 0.093, "NDRG1 mRNA, set 1": 0.18}
{"Gene": "ANGPT4 (angiopoietin 4)", "BNIP3L mRNA, set 1": 0.0682, "NDRG1 mRNA, set 1": 0.219}
{"Gene": "SLC30A2", "BNIP3L mRNA, set 1": 0.0827, "NDRG1 mRNA, set 1": 0.366}
{"Gene": "CLEC1A (C-type lectin domain family 1 member A)", "BNIP3L mRNA, set 1": 0.12, "NDRG1 mRNA, set 1": 0.168}
{"Gene": "APOL6 (apolipoprotein L6)", "BNIP3L mRNA, set 1": 0.135, "NDRG1 mRNA, set 1": 0.159}
{"Gene": "CXCR2 (C-X-C motif chemokine receptor 2)", "BNIP3L mRNA, set 1": 0.0973, "NDRG1 mRNA, set 1": 0.132}
{"Gene": "AK2 (adenylate kinase 2)", "BNIP3L mRNA, set 1": 0.0715, "NDRG1 mRNA, set 1": 0.217}
{"Gene": "CD5 (CD5 molecule)", "BNIP3L mRNA, set 1": 0.106, "NDRG1 mRNA, set 1": 0.142}
{"Gene": "PSMB2 (proteasome 20S subunit beta 2)", "BNIP3L mRNA, set 1": 0.567, "NDRG1 mRNA, set 1": 0.839}
{"Gene": "NOX1 (NADPH oxidase 1)", "BNIP3L mRNA, set 1": 0.0554, "NDRG1 mRNA, set 1": 0.438}
{"Gene": "TCF3 (transcription factor 3)", "BNIP3L mRNA, set 1": 0.0444, "NDRG1 mRNA, set 1": 0.0721}
{"Gene": "CASR (calcium sensing receptor)", "BNIP3L mRNA, set 1": 0.115, "NDRG1 mRNA, set 1": 0.26}
{"Gene": "ZNF747 (zinc finger protein 747)", "BNIP3L mRNA, set 1": 0.112, "NDRG1 mRNA, set 1": 0.085}

Continued, starting with the last 4 of the part before.
{"Gene": "NOX1 (NADPH oxidase 1)", "BNIP3L mRNA, set 1": 0.0554, "NDRG1 mRNA, set 1": 0.438}
{"Gene": "TCF3 (transcription factor 3)", "BNIP3L mRNA, set 1": 0.0444, "NDRG1 mRNA, set 1": 0.0721}
{"Gene": "CASR (calcium sensing receptor)", "BNIP3L mRNA, set 1": 0.115, "NDRG1 mRNA, set 1": 0.26}
{"Gene": "ZNF747 (zinc finger protein 747)", "BNIP3L mRNA, set 1": 0.112, "NDRG1 mRNA, set 1": 0.085}
{"Gene": "ACY1 (aminoacylase 1)", "BNIP3L mRNA, set 1": 0.0811, "NDRG1 mRNA, set 1": 0.213}
{"Gene": "DEPDC5 (DEP domain containing 5, GATOR1 subcomplex subunit)", "BNIP3L mRNA, set 1": 0.146, "NDRG1 mRNA, set 1": 0.267}
{"Gene": "TTI2 (TELO2 interacting protein 2)", "BNIP3L mRNA, set 1": 0.0933, "NDRG1 mRNA, set 1": 0.216}
{"Gene": "STXBP5L (syntaxin binding protein 5L)", "BNIP3L mRNA, set 1": 0.163, "NDRG1 mRNA, set 1": 0.547}
{"Gene": "UGT1A8 (UDP glucuronosyltransferase family 1 member A8)", "BNIP3L mRNA, set 1": 0.137, "NDRG1 mRNA, set 1": 0.265}
{"Gene": "HK2 (hexokinase 2)", "BNIP3L mRNA, set 1": 0.191, "NDRG1 mRNA, set 1": 0.0998}
{"Gene": "PDCD2L (programmed cell death 2 like)", "BNIP3L mRNA, set 1": 0.301, "NDRG1 mRNA, set 1": 0.159}
{"Gene": "ACTR5 (actin related protein 5)", "BNIP3L mRNA, set 1": 0.161, "NDRG1 mRNA, set 1": 0.121}
{"Gene": "SRSF2 (serine and arginine rich splicing factor 2)", "BNIP3L mRNA, set 1": 0.146, "NDRG1 mRNA, set 1": 0.283}
{"Gene": "SMIM7 (small integral membrane protein 7)", "BNIP3L mRNA, set 1": 0.0519, "NDRG1 mRNA, set 1": 0.0686}
{"Gene": "NRM (nurim)", "BNIP3L mRNA, set 1": 0.212, "NDRG1 mRNA, set 1": 0.525}
